This is an account of results in patent US20080020003A1, “Methods for the delivery of a beta2 agonist to induce bronchodilation and formulations for use in the same” (Verus Pharmaceuticals, Inc., priority 2006, published 2008).

The test concerns patient experiencing chronic obstructive pulmonary disease (COPD). In words: treatment of a patient experiencing COPD by nebulized inhalation mixture (paper example). The test is classed as in vivo. The note with it: Example 4: about 0.18 mg/dose, Pari eFlow, less than about 2 minutes. The protocol:
A patient experiencing chronic obstructive pulmonary disease (COPD) initiates treatment by inducing bronchodilation. The patient induces bronchodilation by placing a dose of an inhalation mixture comprising about 0.18 mg/dose of formoterol into the reservoir of a commercially available Pari eFlow® vibrating membrane inhalation nebulizer. The delivery of the inhalation mixture by the nebulizer is then initiated.
A patient experiencing chronic obstructive pulmonary disease (COPD) initiates treatment by inducing bronchodilation. The patient induces bronchodilation by placing a dose of an inhalation mixture comprising about 0.20 mg/dose of albuterol sulfate into the reservoir of a commercially available Pari eFlow® vibrating membrane inhalation nebulizer.

Regarding `COc1ccc(CC(C)NCC(O)c2ccc(O)c(NC=O)c2)cc1` (stereo not shown) [formoterol], the “symptoms of COPD” value was “ameliorated or relieved”.
